PubChem BioAssay AID1224830 | NIAID – 2016
Test: 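Genes whose knock-down alters the TNF-alpha reporter response to LPS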 (primary screen). Cell system: human THP-1 monocytic leukaemia cells, TNF dual-luciferase reporter clone, PMA-differentiated to macrophage-like cells. Reagents: siRNA pool against human genes, 50 nM. Timing: LPS for 4 h, given about 3 days after siRNA transfection. Challenge: bacterial LPS (TLR4 ligand), 10 ng/ml. Measured: 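Ratio of firefly to renilla light, scaled to the plate median and expressed as a robust z-score per replicate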. Direction: TNF reporter robust z-score: higher = stronger TNF reporter response to LPS. Rule for the call: 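Each well counts as active if its z-score is over 2.8 or under -1.5; controls are left without a call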.
This is one part, drawn at random, of about 18,000 deposited reagents. Over the whole deposit, about 2,900 (16%) got an active call. 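Calls are made per well; low scores hint the gene aids the LPS response, high scores that it dampens it.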 Repeated entries: four replicate wells of each siRNA pool.

TNF reporter robust z-score | call | gene
-0.95 | inactive | RXRB (retinoid X receptor beta)
-0.66 | inactive | RXRB (retinoid X receptor beta)
-0.36 | inactive | RXRB (retinoid X receptor beta)
0.42 | inactive | RXRB (retinoid X receptor beta)
-0.16 | inactive | TAFA1 (TAFA chemokine like family member 1)
-0.88 | inactive | TAFA1 (TAFA chemokine like family member 1)
-0.59 | inactive | TAFA1 (TAFA chemokine like family member 1)
0.15 | inactive | TAFA1 (TAFA chemokine like family member 1)
0.22 | inactive | CACNG8 (calcium voltage-gated channel auxiliary subunit gamma 8)
0.21 | inactive | CACNG8 (calcium voltage-gated channel auxiliary subunit gamma 8)
-0.88 | inactive | CACNG8 (calcium voltage-gated channel auxiliary subunit gamma 8)
0.16 | inactive | CACNG8 (calcium voltage-gated channel auxiliary subunit gamma 8)
1.67 | inactive | LDAF1 (lipid droplet assembly factor 1)
1.96 | inactive | LDAF1 (lipid droplet assembly factor 1)
0.37 | inactive | LDAF1 (lipid droplet assembly factor 1)
-0.8 | inactive | CTLA4 (cytotoxic T-lymphocyte associated protein 4)
-0.24 | inactive | CTLA4 (cytotoxic T-lymphocyte associated protein 4)
0.76 | inactive | CTLA4 (cytotoxic T-lymphocyte associated protein 4)
0 | inactive | CTLA4 (cytotoxic T-lymphocyte associated protein 4)
– | inactive | RIMKLB (ribosomal modification protein rimK like family member B)
-1.73 | active | VIPR1 (vasoactive intestinal peptide receptor 1)
-1.45 | inactive | VIPR1 (vasoactive intestinal peptide receptor 1)
-0.84 | inactive | VIPR1 (vasoactive intestinal peptide receptor 1)
-0.62 | inactive | VIPR1 (vasoactive intestinal peptide receptor 1)
-0.76 | inactive | HTR3D (5-hydroxytryptamine receptor 3D)
-0.03 | inactive | HTR3D (5-hydroxytryptamine receptor 3D)
0.12 | inactive | HTR3D (5-hydroxytryptamine receptor 3D)
0.44 | inactive | SNRNP48 (small nuclear ribonucleoprotein U11/U12 subunit 48)
1.17 | inactive | SNRNP48 (small nuclear ribonucleoprotein U11/U12 subunit 48)
0.89 | inactive | SNRNP48 (small nuclear ribonucleoprotein U11/U12 subunit 48)
1.58 | inactive | SNRNP48 (small nuclear ribonucleoprotein U11/U12 subunit 48)
-1.09 | inactive | MYH7B (myosin heavy chain 7B)
-0.98 | inactive | MYH7B (myosin heavy chain 7B)
-0.52 | inactive | MYH7B (myosin heavy chain 7B)
-0.19 | inactive | MYH7B (myosin heavy chain 7B)
0.04 | inactive | VPS37B (VPS37B subunit of ESCRT-I)
1.33 | inactive | VPS37B (VPS37B subunit of ESCRT-I)
0.26 | inactive | VPS37B (VPS37B subunit of ESCRT-I)
0 | inactive | VPS37B (VPS37B subunit of ESCRT-I)
-0.76 | inactive | PGAP3 (post-GPI attachment to proteins phospholipase 3)
0.27 | inactive | PGAP3 (post-GPI attachment to proteins phospholipase 3)
0.23 | inactive | PGAP3 (post-GPI attachment to proteins phospholipase 3)
-0.23 | inactive | PGAP3 (post-GPI attachment to proteins phospholipase 3)
-0.53 | inactive | CYTL1 (cytokine like 1)
-0.14 | inactive | CYTL1 (cytokine like 1)
-0.17 | inactive | CYTL1 (cytokine like 1)
-0.43 | inactive | CYTL1 (cytokine like 1)
0.91 | inactive | TBC1D15 (TBC1 domain family member 15)
-0.77 | inactive | TBC1D15 (TBC1 domain family member 15)
-1.29 | inactive | TBC1D15 (TBC1 domain family member 15)
-0.63 | inactive | TBC1D15 (TBC1 domain family member 15)
0.21 | inactive | TLCD3B (TLC domain containing 3B)
-0.42 | inactive | TLCD3B (TLC domain containing 3B)
-0.47 | inactive | TLCD3B (TLC domain containing 3B)
0.13 | inactive | TLCD3B (TLC domain containing 3B)

Taken from above.
Result of RIMKLB (ribosomal modification protein rimK like family member B) in “call”: inactive

The results go on:
TNF reporter robust z-score | call | gene
-0.59 | inactive | COQ3 (coenzyme Q3, methyltransferase)
-0.26 | inactive | COQ3 (coenzyme Q3, methyltransferase)
-0.85 | inactive | COQ3 (coenzyme Q3, methyltransferase)
-0.67 | inactive | COQ3 (coenzyme Q3, methyltransferase)
-0.53 | inactive | TTL (tubulin tyrosine ligase)
-0.7 | inactive | TTL (tubulin tyrosine ligase)
-0.9 | inactive | TTL (tubulin tyrosine ligase)
2.27 | inactive | ERAL1 (Era like 12S mitochondrial rRNA chaperone 1)
1.39 | inactive | ERAL1 (Era like 12S mitochondrial rRNA chaperone 1)
1.35 | inactive | ERAL1 (Era like 12S mitochondrial rRNA chaperone 1)
1.95 | inactive | ERAL1 (Era like 12S mitochondrial rRNA chaperone 1)
-1.24 | inactive | OR2B2 (olfactory receptor family 2 subfamily B member 2)
-0.31 | inactive | OR2B2 (olfactory receptor family 2 subfamily B member 2)
0.29 | inactive | OR2B2 (olfactory receptor family 2 subfamily B member 2)
-1.02 | inactive | GATB (glutamyl-tRNA amidotransferase subunit B)
0.01 | inactive | GATB (glutamyl-tRNA amidotransferase subunit B)
0.04 | inactive | GATB (glutamyl-tRNA amidotransferase subunit B)
-0.48 | inactive | GATB (glutamyl-tRNA amidotransferase subunit B)
2.52 | inactive | DDRGK1 (DDRGK domain containing 1)
0.87 | inactive | DDRGK1 (DDRGK domain containing 1)
0.16 | inactive | DDRGK1 (DDRGK domain containing 1)
2.34 | inactive | DDRGK1 (DDRGK domain containing 1)
0.16 | inactive | PCSK2 (proprotein convertase subtilisin/kexin type 2)
0.13 | inactive | PCSK2 (proprotein convertase subtilisin/kexin type 2)
-0.87 | inactive | PCSK2 (proprotein convertase subtilisin/kexin type 2)
-0.67 | inactive | PCSK2 (proprotein convertase subtilisin/kexin type 2)
-0.95 | inactive | GSTA3 (glutathione S-transferase alpha 3)
-2.08 | active | GSTA3 (glutathione S-transferase alpha 3)
-1.37 | inactive | GSTA3 (glutathione S-transferase alpha 3)
-0.5 | inactive | GSTA3 (glutathione S-transferase alpha 3)
-0.61 | inactive | H1-4 (H1.4 linker histone, cluster member)
-1.09 | inactive | H1-4 (H1.4 linker histone, cluster member)
0.14 | inactive | H1-4 (H1.4 linker histone, cluster member)
-0.2 | inactive | H1-4 (H1.4 linker histone, cluster member)
-0.59 | inactive | RAD52 (RAD52 DNA repair protein)
0.15 | inactive | RAD52 (RAD52 DNA repair protein)
-0.36 | inactive | RAD52 (RAD52 DNA repair protein)
0.59 | inactive | RAD52 (RAD52 DNA repair protein)
-1.16 | inactive | AK7 (adenylate kinase 7)
-1.72 | active | AK7 (adenylate kinase 7)
-1.25 | inactive | AK7 (adenylate kinase 7)
-0.84 | inactive | AK7 (adenylate kinase 7)
-0.52 | inactive | DECR2 (2,4-dienoyl-CoA reductase 2)
1.19 | inactive | DECR2 (2,4-dienoyl-CoA reductase 2)
0.29 | inactive | DECR2 (2,4-dienoyl-CoA reductase 2)
0.09 | inactive | DECR2 (2,4-dienoyl-CoA reductase 2)
0.26 | inactive | C10orf71 (chromosome 10 open reading frame 71)
0.17 | inactive | C10orf71 (chromosome 10 open reading frame 71)
0.44 | inactive | C10orf71 (chromosome 10 open reading frame 71)
-0.44 | inactive | C10orf71 (chromosome 10 open reading frame 71)
0.57 | inactive | PAICS
0.68 | inactive | PAICS
-0.89 | inactive | PAICS
-0.17 | inactive | PAICS
0.66 | inactive | HSD11B2 (hydroxysteroid 11-beta dehydrogenase 2)
0.86 | inactive | HSD11B2 (hydroxysteroid 11-beta dehydrogenase 2)
-0.06 | inactive | HSD11B2 (hydroxysteroid 11-beta dehydrogenase 2)
1.24 | inactive | HSD11B2 (hydroxysteroid 11-beta dehydrogenase 2)
-0.63 | inactive | RGS19 (regulator of G protein signaling 19)
-0.4 | inactive | RGS19 (regulator of G protein signaling 19)
-0.88 | inactive | RGS19 (regulator of G protein signaling 19)
0.17 | inactive | RGS19 (regulator of G protein signaling 19)
-0.36 | inactive | AMIGO3 (adhesion molecule with Ig like domain 3)
0.19 | inactive | AMIGO3 (adhesion molecule with Ig like domain 3)
0.05 | inactive | AMIGO3 (adhesion molecule with Ig like domain 3)
0.42 | inactive | AMIGO3 (adhesion molecule with Ig like domain 3)
1.85 | inactive | PKDCC (protein kinase domain containing, cytoplasmic)
4.92 | active | PKDCC (protein kinase domain containing, cytoplasmic)
2.35 | inactive | PKDCC (protein kinase domain containing, cytoplasmic)
4.06 | active | PKDCC (protein kinase domain containing, cytoplasmic)
1.02 | inactive | FCGR2C (Fc gamma receptor IIc (gene/pseudogene))
1.48 | inactive | FCGR2C (Fc gamma receptor IIc (gene/pseudogene))
1.13 | inactive | FCGR2C (Fc gamma receptor IIc (gene/pseudogene))
0.95 | inactive | FCGR2C (Fc gamma receptor IIc (gene/pseudogene))
2.76 | inactive | NUDT6 (nudix hydrolase 6)
2.24 | inactive | NUDT6 (nudix hydrolase 6)
0.17 | inactive | NUDT6 (nudix hydrolase 6)
2.62 | inactive | NUDT6 (nudix hydrolase 6)
-0.67 | inactive | SLAMF7 (SLAM family member 7)
0.52 | inactive | SLAMF7 (SLAM family member 7)
-0.27 | inactive | SLAMF7 (SLAM family member 7)
-0.3 | inactive | SLAMF7 (SLAM family member 7)
0.31 | inactive | CLDN17 (claudin 17)
0.29 | inactive | CLDN17 (claudin 17)
0.1 | inactive | CLDN17 (claudin 17)
-0.59 | inactive | CLDN17 (claudin 17)
